Test results as given in PubChem BioAssay AID248 (DTP/NCI, 2004).
The list does not hold the whole screen: it gathers tests that were run many times, whatever their T/C, doses with no T/C, and many T/C values between a quarter and a half above the control. Other doses and runs of a compound stand elsewhere. T/C is the treated group as % of the vehicle group. Some doses have a count of surviving animals in place of a T/C: the source files T/C as zero there, which appears to mark a toxic dose or a test without result, not a measured value. Some doses without a T/C left all or most animals alive at the check, yet need not have been tolerated: the source hardly ever lists a survival T/C far under the control, and the zero likely stands for such cases as well. Survivors were counted at the toxicity check, usually on the fifth day, unless a day is given; later deaths do not show. Schedules are NCI's codes, taken here to give the interval after Q, in days (D) or hours (H), and the number of doses after X. Some schedules carry Z or #; the key to these is not given. For survival time, the PubChem record calls one and a half times the control and up active, and a quarter to a half above the control has no call in these data; cut-offs in other NCI protocols can differ.

Tested on: L1210 leukemia ip in BDF1 mice, survival T/C
Assay: NCI In Vivo Anticancer Drug Screen. Data for tumor model L1210 Leukemia (intraperitoneal) in B6D2F1 (BDF1) mice
Conditions: T/C endpoint: mean survival time, higher T/C = longer survival
[1] = dose: 400.0 mg/kg/injection, schedule: Q01DX001 (ip), vehicle: saline

`CCc1c(CNc2ccc(C(=O)NC(CCC(=O)O)C(=O)O)cc2)ccc2nc(N)nc(N)c12` (stereo not given) was tested, and the survivor count (dose: 0.03 mg/kg/injection, schedule: Q01DX009 (ip), vehicle: saline) was 5 of 6, the survivor count (dose: 0.06 mg/kg/injection, schedule: Q01DX009 (ip), vehicle: saline) was 6 of 6 and the survivor count (dose: 0.12 mg/kg/injection, schedule: Q01DX009 (ip), vehicle: saline) was 6 of 6. For the same compound, the survivor count (dose: 0.25 mg/kg/injection, schedule: Q01DX003 (ip), vehicle: saline) was 6 of 6, the survivor count (dose: 0.5 mg/kg/injection, schedule: Q01DX003 (ip), vehicle: saline) was 6 of 6 and the survivor count (dose: 1.0 mg/kg/injection, schedule: Q01DX009 (ip), vehicle: saline) was 5 of 6. The survivor count (dose: 2.0 mg/kg/injection, schedule: Q01DX009 (ip), vehicle: saline) was 6 of 6, the survivor count (dose: 8.0 mg/kg/injection, schedule: Q01DX009 (ip), vehicle: saline) was 6 of 6 and the survivor count (dose: 16.0 mg/kg/injection, schedule: Q01DX009 (ip), vehicle: saline) was 6 of 6. For the same compound, the survivor count (dose: 20.0 micrograms/kg/injection, schedule: Q01DX009 (ip), vehicle: saline) was 5 of 6.

With `O=C(CCc1ccc(C(=O)Nc2ccc(C3=NCCN3)cc2)cc1)Nc1ccc(C2=NCCN2)cc1` the T/C (dose: 15.0 mg/kg/injection, schedule: Q01DX Z (ip), vehicle: carboxymethylcellulose (CMC)) was 143 % of control and the survivor count (dose: 240.0 mg/kg/injection, schedule: Q01DX Z (ip), vehicle: carboxymethylcellulose (CMC)) was 0 of 6.

`C#CCOCC(O)CO` (stereo not given) was tested, and the survivor count (dose: 25.0 mg/kg/injection, schedule: Q01DX009 (ip), vehicle: water) was 6 of 6, the survivor count (dose: 50.0 mg/kg/injection, schedule: Q01DX009 (ip), vehicle: water) was 3 of 6 and the survivor count (dose: 100.0 mg/kg/injection, schedule: Q01DX009 (ip), vehicle: water) was 5 of 6. The survivor count (dose: 200.0 mg/kg/injection, schedule: Q01DX009 (ip), vehicle: water) was 6 of 6 and the survivor count (dose: 400.0 mg/kg/injection, schedule: Q01DX009 (ip), vehicle: water) was 1 of 6.

For `NC(CCl)=NCC1C2CC3CC(C2)CC1C3` (stereo not given), the survivor count (dose: 40.0 mg/kg/injection, schedule: Q01DX009 (ip), vehicle: saline) was 2 of 3, the survivor count (dose: 100.0 mg/kg/injection, schedule: Q04DX002 (ip), vehicle: saline) was 0 of 3 and the survivor count (dose: 200.0 mg/kg/injection, schedule: Q04DX002 (ip), vehicle: saline) was 0 of 3. For the same compound, the survivor count (dose: 400.0 mg/kg/injection, schedule: Q04DX002 (ip), vehicle: saline) was 0 of 3.

With `Cc1cc(C(=O)CC(C)C(=O)O)cc2c1sc1ccccc12` (stereo not given) the survivor count [1] was 4 of 4.

With `Cc1cc2ccccc2c(N)c1C#N` the survivor count (dose: 200.0 mg/kg/injection, schedule: Q04DX002 (ip), vehicle: saline with Tween-80) was 6 of 6 and the survivor count (dose: 400.0 mg/kg/injection, schedule: Q01DX009 (ip), vehicle: saline with Tween-80) was 3 of 3.

In the case of `O=[N+]([O-])CC(O)c1ccc2ccccc2n1` (stereo not given), the survivor count (dose: 400.0 mg/kg/injection, schedule: Q01DX009 (ip), vehicle: saline) is reported as 0 of 6 and the survivor count (dose: 400.0 mg/kg/injection, schedule: Q04DX003 (ip), vehicle: saline) is reported as 5 of 6.

In the case of `OCC1SC(n2cnc3c(=S)nc[nH]c32)C(O)C1O` (stereo not given), the T/C (dose: 100.0 mg/kg/injection, schedule: Q01DX005 (ip), vehicle: saline) is reported as 139 % of control.

`CN(C)c1ccc(/C=C/c2ccc3ccccc3[n+]2C)cc1` was tested, and the survivor count (dose: 6.0 mg/kg/injection, schedule: Q01DX009 (ip), vehicle: Klucel (hydroxypropylcellulose) (HPC)) was 3 of 6, the survivor count (dose: 12.5 mg/kg/injection, schedule: Q01DX009 (ip), vehicle: Klucel (hydroxypropylcellulose) (HPC)) was 0 of 6 and the survivor count (dose: 25.0 mg/kg/injection, schedule: Q01DX009 (ip), vehicle: Klucel (hydroxypropylcellulose) (HPC)) was 0 of 6. The survivor count (dose: 25.0 mg/kg/injection, schedule: Q04DX003 (ip), vehicle: Klucel (hydroxypropylcellulose) (HPC)) was 3 of 6, the survivor count (dose: 50.0 mg/kg/injection, schedule: Q01DX009 (ip), vehicle: Klucel (hydroxypropylcellulose) (HPC)) was 0 of 6 and the survivor count (dose: 50.0 mg/kg/injection, schedule: Q04DX003 (ip), vehicle: Klucel (hydroxypropylcellulose) (HPC)) was 0 of 6. For the same compound, the survivor count (dose: 75.0 mg/kg/injection, schedule: Q01DX009 (ip), vehicle: Klucel (hydroxypropylcellulose) (HPC)) was 0 of 6, the survivor count (dose: 100.0 mg/kg/injection, schedule: Q04DX003 (ip), vehicle: Klucel (hydroxypropylcellulose) (HPC)) was 0 of 6 and the survivor count (dose: 150.0 mg/kg/injection, schedule: Q01DX009 (ip), vehicle: Klucel (hydroxypropylcellulose) (HPC)) was 0 of 6. For the same compound, the survivor count (dose: 200.0 mg/kg/injection, schedule: Q04DX003 (ip), vehicle: Klucel (hydroxypropylcellulose) (HPC)) was 0 of 6 and the survivor count [1] was 0 of 6.

With `COC(=O)c1ccc[n+](CCc2ccc(OC)c(OC)c2)c1` the survivor count (dose: 150.0 mg/kg/injection, schedule: Q01DX001 (ip), vehicle: saline) was 3 of 6 and the survivor count (dose: 300.0 mg/kg/injection, schedule: Q01DX001 (ip), vehicle: saline) was 0 of 6.
